Results reported in US20220288057A1, “CONJOINT THERAPY FOR TREATING SEIZURE DISORDERS” (XENON PHARMACEUTICALS INC., priority 2021, published 2022).

Tested on: 6 Hz psychomotor seizures in CF-1 mice
Experiment: Mouse 6 Hz psychomotor seizure assay (34 milliampere, 3 s)
Assay type: in vivo
Details: Compound A PO 1 h, Study 3A
Protocol: It was evaluated whether the combination of both compounds is favorable or unfavorable for efficacy by dosing Compound A and Levetiracetam alone and in combination, each at a dose that produces sub-maximal efficacy on its own. […] Plasma and brain samples were analyzed to gain an understanding of how the combination of Compound A and Levetiracetam may affect pharmacokinetics and pharmacodynamics. […] 6 Hz Psychomotor Seizure Assay: […] The animal was then securely restrained and a pair of electrodes was applied to the eyes (Electro Convulsive Therapy Unit 57800, Ugo Basile). […] Data Processing and Analysis: Statistical data analysis was performed using GraphPad Prism (version 8.2.1). Dose-response data was analyzed using a Kruskal-Wallis test, followed by Dunn's multiple comparisons. […] Dose- and concentration-response curves were generated using the Hill Langmuir equation: […]

Cc1cc(N2CCc3cc(F)ccc3C2)cc(C)c1NC(=O)CC(C)(C)C [Compound A, N-[4-(6-fluoro-3,4-dihydro-1H-isoquinolin-2-yl)-2,6-dimethylphenyl]-3,3-dimethylbutanamide]
Hill coefficient n of brain concentration response curve: −2.17 | Hill coefficient n of dose response curve: −3.09 | Hill coefficient n of plasma concentration response curve: −1.95
